Laboratory results published in patent US20120321697A1, “BPB-BASED CARGO DELIVERY SYSTEM” (GWANGJU INSTITUTE OF SCIENCE AND TECHNOLOGY, priority 2009, published 2012).
No constants are given. Whether binding was seen depends on the method and setting. Some results given as binding are weak or reduced against the parent protein; the word gives no strength. One block for each binder: values may come before it.

Chains of the proteins cited; added tags and fusions are not shown. Lines headed by an entry give the natural chain unless they say otherwise; changes in a name come on top. A line that says so, or that is headed by a name, gives the form on record, which may keep a tag or linker. Residues count along the entry.
UniProt Q99836: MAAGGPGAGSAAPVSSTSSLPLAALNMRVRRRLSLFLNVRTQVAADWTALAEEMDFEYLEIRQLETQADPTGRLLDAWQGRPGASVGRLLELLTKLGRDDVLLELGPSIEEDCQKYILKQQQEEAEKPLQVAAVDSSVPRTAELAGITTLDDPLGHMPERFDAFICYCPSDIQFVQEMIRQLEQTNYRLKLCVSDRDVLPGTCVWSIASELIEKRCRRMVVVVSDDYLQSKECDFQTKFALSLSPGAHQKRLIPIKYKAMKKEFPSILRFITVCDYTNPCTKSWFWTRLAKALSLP
UniProt P02768, residues 25-609: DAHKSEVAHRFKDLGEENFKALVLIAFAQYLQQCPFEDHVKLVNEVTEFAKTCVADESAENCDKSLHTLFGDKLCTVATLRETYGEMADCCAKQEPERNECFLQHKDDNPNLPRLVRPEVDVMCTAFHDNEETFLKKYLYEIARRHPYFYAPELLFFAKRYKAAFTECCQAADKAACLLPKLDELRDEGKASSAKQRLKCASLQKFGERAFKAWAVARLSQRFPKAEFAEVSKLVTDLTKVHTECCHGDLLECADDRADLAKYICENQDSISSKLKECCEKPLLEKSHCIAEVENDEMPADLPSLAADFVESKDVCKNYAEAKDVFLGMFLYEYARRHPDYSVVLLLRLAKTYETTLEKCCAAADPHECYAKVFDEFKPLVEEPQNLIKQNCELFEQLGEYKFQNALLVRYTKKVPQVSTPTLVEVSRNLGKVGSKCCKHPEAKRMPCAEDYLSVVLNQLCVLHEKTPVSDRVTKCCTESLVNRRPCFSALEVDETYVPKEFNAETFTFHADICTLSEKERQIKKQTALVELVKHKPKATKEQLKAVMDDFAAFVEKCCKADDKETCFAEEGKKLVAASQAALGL
VEGF121 (P15692, form named): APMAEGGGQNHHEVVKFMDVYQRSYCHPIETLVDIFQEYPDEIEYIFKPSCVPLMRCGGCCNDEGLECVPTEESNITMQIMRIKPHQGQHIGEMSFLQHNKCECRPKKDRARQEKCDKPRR

How the values were obtained:
Human MyD88 (human) [1] = biological target: Human MyD88 (human) (UniProt Q99836); experiment: phage ELISA, clones with higher absorbance than on BSA, sequenced
Human MyD88 (human) [2] = biological target: Human MyD88 (human) (UniProt Q99836); experiment: phage ELISA on several coated proteins
Human MyD88 (human) [3] = biological target: Human MyD88 (human) (UniProt Q99836); experiment: phage ELISA (anti-M13-HRP, absorbance at 450 nm), proteins coated at 5 µg/ml
[4] = biological target: Human serum albumin (human) (UniProt P02768); experiment: phage ELISA, clones with higher absorbance than on BSA, sequenced
VEGF121 (human) = VEGF121 (human) (UniProt P15692); experiment: as above
VCAM1-Trx (human) [5] = biological target: T1, VCAM1-Trx (human) (UniProt P19320); experiment: as above
T1 sequence (looked up): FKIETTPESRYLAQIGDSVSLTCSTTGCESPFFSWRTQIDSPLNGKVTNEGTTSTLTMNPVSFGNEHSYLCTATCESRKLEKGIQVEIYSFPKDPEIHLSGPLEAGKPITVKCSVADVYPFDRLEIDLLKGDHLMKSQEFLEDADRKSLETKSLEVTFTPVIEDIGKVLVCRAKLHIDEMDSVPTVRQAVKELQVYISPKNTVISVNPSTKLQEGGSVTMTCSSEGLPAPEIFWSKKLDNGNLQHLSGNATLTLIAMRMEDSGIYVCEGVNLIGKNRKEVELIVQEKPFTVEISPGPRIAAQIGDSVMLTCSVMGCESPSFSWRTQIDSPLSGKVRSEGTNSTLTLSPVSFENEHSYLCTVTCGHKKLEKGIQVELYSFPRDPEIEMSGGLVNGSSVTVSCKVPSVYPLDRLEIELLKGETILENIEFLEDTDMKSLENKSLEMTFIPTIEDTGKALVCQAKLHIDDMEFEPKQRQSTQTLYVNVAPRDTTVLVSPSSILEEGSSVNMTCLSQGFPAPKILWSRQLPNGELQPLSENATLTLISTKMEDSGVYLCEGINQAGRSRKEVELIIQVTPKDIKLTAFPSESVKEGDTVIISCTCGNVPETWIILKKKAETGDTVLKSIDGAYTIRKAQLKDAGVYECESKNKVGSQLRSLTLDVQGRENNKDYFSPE

VCAM1-Trx (human) [6] = biological target: T1, VCAM1-Trx (human); experiment: phage ELISA on several coated proteins
VCAM1-Trx (human) [7] = biological target: T1, VCAM1-Trx (human); experiment: phage ELISA (anti-M13-HRP, absorbance at 450 nm), proteins coated at 5 µg/ml

Binder: HSHAFYGSWTWENGKWTWKGNPGWWT [Peptide 1 specific to MyD88 (Table 3f)]
binding (Human MyD88 (human) [1]): binds | binding (Human MyD88 (human) [2]): binds | binding (Human MyD88 (human) [3]): binds

Binder: QARDCTGSWTWENGKWTWKGPSICPI [Peptide 1 specific to VCAM1 (Table 3c)]
binding (VCAM1-Trx (human) [5]): binds | binding (VCAM1-Trx (human) [6]): binds | binding (VCAM1-Trx (human) [7]): binds

Second part, the binder after the results:

binding (Human MyD88 (human) [1]): binds
Binder: ASTINFGSWTWENGKWTWKGYTRRWN [Peptide 2 specific to MyD88 (Table 3f)]

binding [4]: binds | binding (VEGF121 (human)): binds
Binder: YGAYPWGSWTWENGKWTWKGWRVSRD [Peptide 4 specific to VEGF (Table 3b)]
